Test results reported in PMC11492288.
These are yes or no findings as the source states them, for the method shown. In cells and extracts the contact can be indirect. Some binding calls cover weakened binding; strength is not graded here. For part of these data: Sequences can lack the tags named with a protein.

Key:
[1] = target: T1, ΔNp63α-FLAG (UniProt Q9H3D4); experiment: co-IP; NLRP10-YFP and ΔNp63α-FLAG co-expressed in 293T cells; IP lysis/wash buffer, 1 mg total lysate; eluted with FLAG peptide; Western blot
T1 sequence: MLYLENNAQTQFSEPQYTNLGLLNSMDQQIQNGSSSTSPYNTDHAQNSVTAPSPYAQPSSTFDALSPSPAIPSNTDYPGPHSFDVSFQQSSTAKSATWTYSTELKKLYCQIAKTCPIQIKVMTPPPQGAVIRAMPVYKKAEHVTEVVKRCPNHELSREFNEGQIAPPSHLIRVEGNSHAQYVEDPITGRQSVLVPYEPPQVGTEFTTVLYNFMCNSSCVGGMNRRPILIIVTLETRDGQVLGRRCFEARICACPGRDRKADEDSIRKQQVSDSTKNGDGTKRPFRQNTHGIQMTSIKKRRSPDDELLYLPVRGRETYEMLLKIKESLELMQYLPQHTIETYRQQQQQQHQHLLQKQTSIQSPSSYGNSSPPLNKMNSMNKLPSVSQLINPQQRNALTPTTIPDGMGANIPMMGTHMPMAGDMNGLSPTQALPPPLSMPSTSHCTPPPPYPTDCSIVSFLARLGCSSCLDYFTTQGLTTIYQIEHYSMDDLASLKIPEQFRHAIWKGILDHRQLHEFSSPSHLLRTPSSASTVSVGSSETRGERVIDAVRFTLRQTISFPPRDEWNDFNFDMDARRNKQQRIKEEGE

[2] = target: death receptor 5 (human (endogenous in NHEK and Jurkat)), O14763; experiment: co-IP; DR5 DISC IP: Dynabeads coated with the agonistic anti-DR5 antibody conatumumab added to 2 x 10^6 cells for 1 h at 37 °C; lysis in DISC buffer (1% Triton X-100, 30 mM Tris-HCl pH 7.5, 150 mM NaCl, 10% glycerol); 5 washes; Western blot; WT and NLRP10 KO NHEKs, Jurkat cells with or without NLRP10 overexpression; details: remark: other sources report otherwise
[3] = target: caspase-8 (endogenous) (human (endogenous in NHEK and Jurkat)) (UniProt Q14790); experiment: as above

B1: NLRP10-YFP (protein, UniProt Q86W26 1-655)
chain: MAMAKARKPREALLWALSDLEENDFKKLKFYLRDMTLSEGQPPLARGELEGLIPVDLAELLISKYGEKEAVKVVLKGLKVMNLLELVDQLSHICLHDYREVYREHVRCLEEWQEAGVNGRYNQVLLVAKPSSESPESLACPFPEQELESVTVEALFDSGEKPSLAPSLVVLQGSAGTGKTTLARKMVLDWATGTLYPGRFDYVFYVSCKEVVLLLESKLEQLLFWCCGDNQAPVTEILRQPERLLFILDGFDELQRPFEEKLKKRGLSPKESLLHLLIRRHTLPTCSLLITTRPLALRNLEPLLKQARHVHILGFSEEERARYFSSYFTDEKQADRAFDIVQKNDILYKACQVPGICWVVCSWLQGQMERGKVVLETPRNSTDIFMAYVSTFLPPDDDGGCSELSRHRVLRSLCSLAAEGIQHQRFLFEEAELRKHNLDGPRLAAFLSSNDYQLGLAIKKFYSFRHISFQDFFHAMSYLVKEDQSRLGKESRREVQRLLEVKEQEGNDEMTLTMQFLLDISKKDSFSNLELKFCFRISPCLAQDLKHFKEQMESMKHNRTWDLEFSLYEAKIKNLVKGIQMNNVSFKIKHSNEKKSQSQNLFSVKSSLSHGPKEEQKCPSVHGQKEGKDNIAGTQKEASTGKGRGTEETPKNTYI
In the case of B1, the binding [1] is reported as “binds”.

B2: caspase-8 (endogenous), Q14790 1-479 (enzyme)
chain: MDFSRNLYDIGEQLDSEDLASLKFLSLDYIPQRKQEPIKDALMLFQRLQEKRMLEESNLSFLKELLFRINRLDLLITYLNTRKEEMERELQTPGRAQISAYRVMLYQISEEVSRSELRSFKFLLQEEISKCKLDDDMNLLDIFIEMEKRVILGEGKLDILKRVCAQINKSLLKIINDYEEFSKERSSSLEGSPDEFSNGEELCGVMTISDSPREQDSESQTLDKVYQMKSKPRGYCLIINNHNFAKAREKVPKLHSIRDRNGTHLDAGALTTTFEELHFEIKPHDDCTVEQIYEILKIYQLMDHSNMDCFICCILSHGDKGIIYGTDGQEAPIYELTSQFTGLKCPSLAGKPKVFFIQACQGDNYQKGIPVETDSEEQPYLEMDLSSPQTRYIPDEADFLLGMATVNNCVSYRNPAEGTWYIQSLCQSLRERCPRGDDILTILTEVNYEVSNKDDKKNMGKQMPQPTFTLRKKLVFPSD
For B2, the binding [2] was “binds”.

B3: NLRP10 overexpressed in Jurkat cells (protein, UniProt Q86W26 1-655)
chain: MAMAKARKPREALLWALSDLEENDFKKLKFYLRDMTLSEGQPPLARGELEGLIPVDLAELLISKYGEKEAVKVVLKGLKVMNLLELVDQLSHICLHDYREVYREHVRCLEEWQEAGVNGRYNQVLLVAKPSSESPESLACPFPEQELESVTVEALFDSGEKPSLAPSLVVLQGSAGTGKTTLARKMVLDWATGTLYPGRFDYVFYVSCKEVVLLLESKLEQLLFWCCGDNQAPVTEILRQPERLLFILDGFDELQRPFEEKLKKRGLSPKESLLHLLIRRHTLPTCSLLITTRPLALRNLEPLLKQARHVHILGFSEEERARYFSSYFTDEKQADRAFDIVQKNDILYKACQVPGICWVVCSWLQGQMERGKVVLETPRNSTDIFMAYVSTFLPPDDDGGCSELSRHRVLRSLCSLAAEGIQHQRFLFEEAELRKHNLDGPRLAAFLSSNDYQLGLAIKKFYSFRHISFQDFFHAMSYLVKEDQSRLGKESRREVQRLLEVKEQEGNDEMTLTMQFLLDISKKDSFSNLELKFCFRISPCLAQDLKHFKEQMESMKHNRTWDLEFSLYEAKIKNLVKGIQMNNVSFKIKHSNEKKSQSQNLFSVKSSLSHGPKEEQKCPSVHGQKEGKDNIAGTQKEASTGKGRGTEETPKNTYI
With B3 the binding [3] was “binds”.
